Experimental data from PubChem BioAssay (Tox21).
Where “and” joins values, the source holds several entries; their conditions need not be identical. Identical values can stand only once. This list was built around the results that the source calls inconclusive (neither active nor inactive); the mix of calls is not that of the screen. Where the call is inconclusive, the potency comes from a doubtful curve fit. Calls of active or inactive are those of the source. The call rests on the fitted dose curve; in most records, active means well fitted curve in the direction sought with a large enough effect in the repeat runs; inconclusive means weak or mixed curves; inactive means no such curve, though single readings can be large; an effect the other way counts as inactive or inconclusive.

Amino acid sequences for entries named in this document (tags omitted). A change or cut given only in a name is not applied to a line headed by its entry.
UniProt P10635, whole entry, looked up: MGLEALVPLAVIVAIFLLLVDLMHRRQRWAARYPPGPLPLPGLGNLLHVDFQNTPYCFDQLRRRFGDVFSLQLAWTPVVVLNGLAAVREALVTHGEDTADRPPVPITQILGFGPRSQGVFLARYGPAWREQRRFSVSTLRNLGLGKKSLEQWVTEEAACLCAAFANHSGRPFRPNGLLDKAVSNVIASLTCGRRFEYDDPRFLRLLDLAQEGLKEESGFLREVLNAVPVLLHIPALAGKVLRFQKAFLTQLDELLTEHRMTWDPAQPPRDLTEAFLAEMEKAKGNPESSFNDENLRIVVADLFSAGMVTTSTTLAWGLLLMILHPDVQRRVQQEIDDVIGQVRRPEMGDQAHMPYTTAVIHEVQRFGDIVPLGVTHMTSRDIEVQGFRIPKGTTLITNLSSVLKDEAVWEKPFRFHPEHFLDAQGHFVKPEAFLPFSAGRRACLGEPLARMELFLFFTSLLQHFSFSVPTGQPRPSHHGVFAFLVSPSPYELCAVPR
UniProt P11712, whole entry, looked up: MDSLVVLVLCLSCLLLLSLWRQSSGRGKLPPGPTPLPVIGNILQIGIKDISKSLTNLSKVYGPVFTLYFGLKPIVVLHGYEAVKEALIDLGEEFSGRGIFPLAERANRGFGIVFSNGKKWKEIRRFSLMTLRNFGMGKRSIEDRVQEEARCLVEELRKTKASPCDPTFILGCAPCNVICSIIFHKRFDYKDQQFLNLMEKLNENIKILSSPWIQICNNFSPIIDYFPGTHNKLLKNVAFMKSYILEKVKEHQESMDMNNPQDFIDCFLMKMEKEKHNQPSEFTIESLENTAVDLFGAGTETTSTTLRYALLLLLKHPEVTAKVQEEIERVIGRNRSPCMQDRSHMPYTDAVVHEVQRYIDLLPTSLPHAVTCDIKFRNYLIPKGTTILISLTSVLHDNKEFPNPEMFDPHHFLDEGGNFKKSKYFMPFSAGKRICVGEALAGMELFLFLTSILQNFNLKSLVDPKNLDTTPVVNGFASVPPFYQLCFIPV
UniProt P33261, whole entry, looked up: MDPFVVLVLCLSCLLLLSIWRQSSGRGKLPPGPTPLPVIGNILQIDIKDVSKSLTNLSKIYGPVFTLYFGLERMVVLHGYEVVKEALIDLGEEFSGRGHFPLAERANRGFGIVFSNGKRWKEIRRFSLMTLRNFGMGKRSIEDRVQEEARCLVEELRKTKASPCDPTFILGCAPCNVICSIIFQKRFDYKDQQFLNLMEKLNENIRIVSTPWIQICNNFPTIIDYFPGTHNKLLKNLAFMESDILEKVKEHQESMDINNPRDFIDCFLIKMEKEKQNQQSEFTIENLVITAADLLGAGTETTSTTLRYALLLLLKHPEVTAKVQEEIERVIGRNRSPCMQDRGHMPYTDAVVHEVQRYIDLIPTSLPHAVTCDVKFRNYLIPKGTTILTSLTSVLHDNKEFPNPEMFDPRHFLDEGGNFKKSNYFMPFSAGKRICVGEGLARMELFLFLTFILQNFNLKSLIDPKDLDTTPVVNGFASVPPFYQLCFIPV
UniProt Q12809: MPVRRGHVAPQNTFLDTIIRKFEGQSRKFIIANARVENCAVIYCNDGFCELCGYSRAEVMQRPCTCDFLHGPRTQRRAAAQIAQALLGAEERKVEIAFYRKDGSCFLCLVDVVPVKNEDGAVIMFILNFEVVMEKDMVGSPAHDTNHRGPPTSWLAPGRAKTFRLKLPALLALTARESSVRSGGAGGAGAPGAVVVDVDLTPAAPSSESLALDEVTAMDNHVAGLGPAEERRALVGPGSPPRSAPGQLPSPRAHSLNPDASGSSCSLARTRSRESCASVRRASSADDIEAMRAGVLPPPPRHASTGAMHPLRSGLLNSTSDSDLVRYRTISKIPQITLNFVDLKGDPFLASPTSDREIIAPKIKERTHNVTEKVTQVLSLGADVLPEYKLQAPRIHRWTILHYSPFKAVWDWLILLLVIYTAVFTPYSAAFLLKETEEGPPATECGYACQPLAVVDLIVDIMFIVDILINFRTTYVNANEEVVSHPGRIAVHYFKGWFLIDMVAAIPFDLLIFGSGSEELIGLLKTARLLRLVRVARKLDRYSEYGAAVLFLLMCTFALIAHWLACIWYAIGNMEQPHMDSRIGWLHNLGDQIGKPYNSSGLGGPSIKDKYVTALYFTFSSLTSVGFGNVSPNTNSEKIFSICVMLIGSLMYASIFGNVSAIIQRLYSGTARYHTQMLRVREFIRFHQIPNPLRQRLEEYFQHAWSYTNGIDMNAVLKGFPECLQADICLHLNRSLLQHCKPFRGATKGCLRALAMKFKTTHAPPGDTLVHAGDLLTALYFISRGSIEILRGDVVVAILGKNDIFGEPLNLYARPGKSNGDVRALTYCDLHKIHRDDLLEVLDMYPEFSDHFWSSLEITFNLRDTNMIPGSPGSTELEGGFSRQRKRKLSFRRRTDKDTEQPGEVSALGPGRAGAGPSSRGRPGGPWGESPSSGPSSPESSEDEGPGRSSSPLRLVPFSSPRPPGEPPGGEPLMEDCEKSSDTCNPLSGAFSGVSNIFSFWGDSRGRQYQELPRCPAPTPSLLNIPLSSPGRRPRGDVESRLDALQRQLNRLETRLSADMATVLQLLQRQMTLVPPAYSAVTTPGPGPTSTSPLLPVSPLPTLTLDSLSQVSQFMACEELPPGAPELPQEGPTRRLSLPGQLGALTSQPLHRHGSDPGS
UniProt P05177, whole entry, looked up: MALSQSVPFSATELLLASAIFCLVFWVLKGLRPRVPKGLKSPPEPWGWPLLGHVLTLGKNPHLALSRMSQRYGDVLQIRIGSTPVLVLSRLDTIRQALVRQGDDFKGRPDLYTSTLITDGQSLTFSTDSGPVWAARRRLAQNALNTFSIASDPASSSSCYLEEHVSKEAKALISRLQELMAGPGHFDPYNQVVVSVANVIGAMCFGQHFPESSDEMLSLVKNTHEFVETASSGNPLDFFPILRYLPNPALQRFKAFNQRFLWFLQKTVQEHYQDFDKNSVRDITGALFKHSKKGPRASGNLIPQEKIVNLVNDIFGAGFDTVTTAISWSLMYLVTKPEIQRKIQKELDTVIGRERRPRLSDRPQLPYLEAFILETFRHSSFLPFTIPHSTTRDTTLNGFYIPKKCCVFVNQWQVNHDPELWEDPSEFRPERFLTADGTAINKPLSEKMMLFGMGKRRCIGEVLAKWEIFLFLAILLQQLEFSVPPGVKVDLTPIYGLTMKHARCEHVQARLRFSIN

Tests used:
[1] = molecular target: Cytochrome P450 2D6 (Homo sapiens) (UniProt P10635); experiment: Cytochrome P450 Family 2 Subfamily D Member 6 (CYP2D6) small molecule antagonists: luciferase reporter qHTS assay (AID 1671196); details: P450-Glo CYP2D6 enzyme assay, luciferin luminescence, 1 h; series mostly up to 115 µM; further: nearly all actives have a fitted effect of over 50% in size
Summary of the method: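 Inhibition of CYP2D6 was gauged by loss of luminescence, since light produced tracks the luciferin generated from a proluciferin substrate. A 10 min room-temperature preincubation preceded 1 h NADPH-supported turnover.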

[2] = molecular target: Cytochrome P450 2C9 (Homo sapiens) (UniProt P11712); experiment: Cytochrome P450 Family 2 Subfamily C Member 9 (CYP2C9) small molecule antagonists: luciferase reporter qHTS assay (AID 1671198); details: P450-Glo CYP2C9 enzyme assay, luciferin luminescence; series mostly up to 115 µM; further: nearly all actives have a fitted effect of over 50% in size
Summary of the method: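 CYP2C9 activity was measured with a P450-Glo proluciferin substrate. Enzyme–substrate mix was held with compound for 10 min at room temperature, then NADPH regeneration solution was added for 1 h at 37C. Luciferin product was read as luminescence.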

[3] = molecular target: Cytochrome P450 2C19 (Homo sapiens) (UniProt P33261); experiment: Cytochrome P450 Family 2 Subfamily C Member 19 (CYP2C19) small molecule antagonists: luciferase reporter qHTS assay (AID 1671197); details: P450-Glo CYP2C19 enzyme, luciferin luminescence, 1 h; series mostly up to 115 µM; further: nearly all actives have a fitted effect of over 65% in size
Summary of the method: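 Enzyme-substrate mix with proluciferin substrate (P450-Glo CYP2C19 system) preincubated with compounds 10 min at room temperature; NADPH regeneration solution added, 37C for 1 h; detection reagent stops reaction, luminescence read after 20 min. Ketoconazole positive control.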

[4] = molecular target: Voltage-gated inwardly rectifying potassium channel KCNH2 (Homo sapiens) (UniProt Q12809); experiment: Human Ether-a-go-go-Related Gene (hERG) channel small molecule antagonists: fluorescence cell-based qHTS assay (AID 1671200); details: hERG-U2OS cells, FluxOR thallium flux fluorescence; series mostly up to 76.8 µM; further: nearly all actives have a fitted effect of over 50% in size
Summary of the method: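 Channel function was assessed by thallium flux. Cells seeded the previous day and kept at 37 C took up FluxOR II dye over 1 h in the dark at room temperature, then sat another 10 min before stimulation.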

[5] = molecular target: Cytochrome P450 1A2 (Homo sapiens) (UniProt P05177); experiment: Cytochrome P450 Family 1 Subfamily A Member 2 (CYP1A2) small molecule antagonists: luciferase reporter qHTS assay (AID 1671199); details: P450-Glo CYP1A2 enzyme, luciferin luminescence, 1 h; series mostly up to 115 µM; further: nearly all actives have a fitted effect of over 50% in size
Summary of the method: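 Signal from luciferin formed by CYP1A2 from a proluciferin substrate is read as luminescence, expressed in relative luminescence units. Compounds sit with enzyme 10 min, NADPH-driven reaction runs 1 h, all at room temperature.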
Potency means the concentration at half of the fitted maximal effect.

Cc1cccc(Oc2ccccc2)c1
Potency [1]: active: 34.7 µM
Potency [2]: inconclusive: 30.9 µM [inhibitor, partial curve, poor fit]

O=C(OCc1ccccc1)c1ccccc1O
Potency [1]: inconclusive: 62.8 µM [inhibitor, partial curve, poor fit]
Potency [3]: active: 5.6 µM and active: 17.8 µM
Potency [2]: inconclusive: 35.3 µM [inhibitor, partial curve] and active: 35.6 µM
Potency [4]: inconclusive: 49 µM [inhibitor, partial curve]

Cc1c(C)c2c(c(C)c1OC(=O)c1cccnc1)CC[C@@](C)(CCC[C@H](C)CCC[C@H](C)CCCC(C)C)O2
Potency [1]: inactive
Potency [5]: inconclusive: 9.11 µM [inhibitor, full curve]

CC(=O)Nc1ccc(S(=O)(=O)Cl)cc1
Potency [1]: inactive
Potency [3]: inconclusive: 89.4 µM [inhibitor, single point]
Potency [5]: inactive

O=C(O)CNC(=O)c1ccc(CO)o1
Potency [1]: inconclusive: 62.6 µM [inhibitor, partial curve]
Potency [2]: inactive

CCC(C)(O)CCCC(C)C (configuration not stated)
Potency [1]: inconclusive: 28.3 µM [inhibitor, full curve] and inactive
Potency [3]: inconclusive: 89.6 µM [inhibitor, single point]
Potency [2]: inconclusive: 79.9 µM [inhibitor] and inactive
Potency [5]: inconclusive: 63.5 µM [inhibitor, partial curve, poor fit]

Nc1nnnn1-c1ccccc1
Potency [1]: inactive
Potency [5]: inconclusive: 34.7 µM [inhibitor, partial curve, poor fit]

CO[C@H]1C=CO[C@@]2(C)Oc3c(C)c(O)c4c(O)c(c(/C=N/N5CCN(C)CC5)c(O)c4c3C2=O)NC(=O)/C(C)=C\C=C[C@H](C)[C@H](O)[C@@H](C)[C@@H](O)[C@@H](C)[C@H](OC(C)=O)[C@@H]1C
Potency [1]: inconclusive: 36 µM [inhibitor, partial curve, poor fit] and inconclusive: 38.9 µM [inhibitor, single point]
Potency [5]: inconclusive: 50.8 µM [inhibitor, partial curve, poor fit]

NCCCCCCNCCCCCCN
Potency [1]: active: 4.94 µM
Potency [2]: inactive
Potency [5]: inactive

CC(=O)Nc1ncc([N+](=O)[O-])s1
Potency [3]: inactive
Potency [2]: inconclusive: 17.4 µM [inhibitor, partial curve, poor fit]

COc1cc(S(N)(=O)=O)cc(C(=O)O)c1OC
Potency [3]: inactive

C/C=C/C(=O)CCCC
Potency [3]: inconclusive: 89.4 µM [inhibitor, single point]
Potency [2]: inconclusive: 56.4 µM [inhibitor, partial curve]

O=C1O[C@@H]2[C@@H](O)[C@H](O)O[C@@H]2[C@H]1O
Potency [3]: inconclusive: 89.4 µM [inhibitor, single point]
Potency [2]: inconclusive: 79.6 µM [inhibitor, partial curve, poor fit]
Potency [5]: inactive

CC(C)OC(=O)c1ccccc1
Potency [1]: inactive
Potency [4]: inactive

c1ccc(Cc2ccccc2)cc1
Potency [3]: inconclusive: 79.6 µM [inhibitor, single point]
Potency [2]: inconclusive: 56.4 µM [inhibitor, partial curve, poor fit]

C=CC(C)(CCC=C(C)C)OC(=O)C(C)C (configuration not stated)
Potency [3]: active: 71 µM
Potency [2]: active: 39.9 µM

C=CCON/C(CCC)=C1\C(=O)CC(C)(C)C(C(=O)OC)=C1O
Potency [3]: active: 78.7 µM
Potency [2]: active: 35.2 µM
Potency [5]: inconclusive: 35.2 µM [inhibitor, partial curve]

O=c1[nH]c(=O)n([C@H]2O[C@H](CO)[C@@H](O)[C@@H]2O)cc1/C=C\Br
Potency [3]: inactive

CCCCCCCCCCC[C@@H](C[C@@H]1OC(=O)[C@H]1CCCCCC)OC(=O)[C@H](CC(C)C)NC=O
Potency [3]: inconclusive: 5.49 µM [inhibitor, full curve]
Potency [2]: active: 2.75 µM

O=C1CCCc2c(O)cccc21
Potency [3]: inconclusive: 15.5 µM [inhibitor, single point]

C[C@H]1[C@H](NC(=O)/C(=N/OC(C)(C)C(=O)O)c2csc(N)n2)C(=O)N1S(=O)(=O)O (stereo in doubt)
Potency [1]: inactive
Potency [5]: inconclusive: 24.5 µM [inhibitor, partial curve]
